Measurements from article PMC3511562.
Results are given in words; binding and its absence hold for the method and conditions named. Some binding calls cover weakened binding; strength is not graded here. Where a sequence is shown, tags or fusion partners need not be part of it.

Sequences of proteins named here, by UniProt entry; tags and fusion partners are left off. Residues count along the entry.
UniProt P22646, residues 22-189: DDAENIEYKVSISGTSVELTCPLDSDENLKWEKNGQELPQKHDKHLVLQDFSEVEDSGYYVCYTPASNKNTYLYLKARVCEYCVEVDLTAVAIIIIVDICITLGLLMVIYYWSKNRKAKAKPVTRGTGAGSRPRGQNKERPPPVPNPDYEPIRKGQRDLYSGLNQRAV

Target: T1, SUC2::CD3δ::Cub-LexAVP16 fusion protein (mouse) (UniProt P04235)
T1 sequence: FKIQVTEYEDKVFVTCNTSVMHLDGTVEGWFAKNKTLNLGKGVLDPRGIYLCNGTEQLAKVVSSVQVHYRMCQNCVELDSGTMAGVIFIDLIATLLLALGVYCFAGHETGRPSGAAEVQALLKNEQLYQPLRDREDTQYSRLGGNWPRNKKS
Test: two-hybrid; split-ubiquitin membrane yeast two-hybrid, directed tests; CD3δ-Cub bait with defined NubG preys (TCR subunits, controls); growth on Leu-,His-,Trp- and Leu-,His-,Trp-,Ade- plates; + is >100 colonies, +/− is <10 colonies

binding: binds
Substance: CD3ε fused to the N-terminal domain of ubiquitin (from UniProt P22646 22-189)
